Source: paper PMC3164630
Results are given in words; binding and its absence hold for the method and conditions named. In cells and extracts the contact can be indirect. Some results given as binding are weak or reduced against the parent protein; the word gives no strength.

Sequences of proteins named here, by UniProt entry; tags and fusion partners are left off.
UniProt P18754: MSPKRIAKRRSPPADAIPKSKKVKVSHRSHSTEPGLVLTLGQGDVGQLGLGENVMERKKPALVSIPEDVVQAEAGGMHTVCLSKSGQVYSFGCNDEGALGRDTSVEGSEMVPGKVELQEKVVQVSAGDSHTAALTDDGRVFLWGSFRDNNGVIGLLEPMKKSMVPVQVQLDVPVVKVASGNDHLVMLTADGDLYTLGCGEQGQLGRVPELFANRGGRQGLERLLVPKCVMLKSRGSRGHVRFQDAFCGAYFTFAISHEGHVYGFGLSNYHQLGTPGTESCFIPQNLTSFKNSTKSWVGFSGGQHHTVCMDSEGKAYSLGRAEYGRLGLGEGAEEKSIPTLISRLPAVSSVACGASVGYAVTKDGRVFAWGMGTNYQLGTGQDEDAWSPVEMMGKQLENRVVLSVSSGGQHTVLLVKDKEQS
UniProt P03427: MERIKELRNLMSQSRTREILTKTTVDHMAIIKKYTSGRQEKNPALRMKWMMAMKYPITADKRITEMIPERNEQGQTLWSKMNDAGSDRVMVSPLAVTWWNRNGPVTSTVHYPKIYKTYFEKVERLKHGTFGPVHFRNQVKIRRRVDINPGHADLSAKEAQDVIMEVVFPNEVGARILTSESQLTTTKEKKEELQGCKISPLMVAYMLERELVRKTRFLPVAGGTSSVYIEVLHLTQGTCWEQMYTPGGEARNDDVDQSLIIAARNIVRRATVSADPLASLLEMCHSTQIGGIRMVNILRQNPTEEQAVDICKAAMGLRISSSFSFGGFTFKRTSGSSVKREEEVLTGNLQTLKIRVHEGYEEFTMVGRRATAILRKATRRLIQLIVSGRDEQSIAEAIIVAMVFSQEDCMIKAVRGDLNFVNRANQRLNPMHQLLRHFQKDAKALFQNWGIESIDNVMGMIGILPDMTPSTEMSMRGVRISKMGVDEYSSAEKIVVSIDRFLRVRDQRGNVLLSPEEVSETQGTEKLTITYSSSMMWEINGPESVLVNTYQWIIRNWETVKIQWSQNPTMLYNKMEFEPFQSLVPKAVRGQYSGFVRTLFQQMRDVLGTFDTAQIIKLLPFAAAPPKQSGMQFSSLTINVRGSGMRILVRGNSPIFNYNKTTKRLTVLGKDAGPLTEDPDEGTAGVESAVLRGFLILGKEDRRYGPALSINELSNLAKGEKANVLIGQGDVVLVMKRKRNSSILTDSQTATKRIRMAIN
UniProt P05777: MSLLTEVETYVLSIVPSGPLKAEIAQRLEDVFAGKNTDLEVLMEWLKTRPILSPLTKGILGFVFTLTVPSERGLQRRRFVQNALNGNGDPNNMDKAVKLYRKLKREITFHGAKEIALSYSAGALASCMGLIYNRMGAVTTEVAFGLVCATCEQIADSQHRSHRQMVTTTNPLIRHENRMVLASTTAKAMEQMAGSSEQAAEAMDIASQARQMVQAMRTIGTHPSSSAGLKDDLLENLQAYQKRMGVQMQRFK
UniProt P15682: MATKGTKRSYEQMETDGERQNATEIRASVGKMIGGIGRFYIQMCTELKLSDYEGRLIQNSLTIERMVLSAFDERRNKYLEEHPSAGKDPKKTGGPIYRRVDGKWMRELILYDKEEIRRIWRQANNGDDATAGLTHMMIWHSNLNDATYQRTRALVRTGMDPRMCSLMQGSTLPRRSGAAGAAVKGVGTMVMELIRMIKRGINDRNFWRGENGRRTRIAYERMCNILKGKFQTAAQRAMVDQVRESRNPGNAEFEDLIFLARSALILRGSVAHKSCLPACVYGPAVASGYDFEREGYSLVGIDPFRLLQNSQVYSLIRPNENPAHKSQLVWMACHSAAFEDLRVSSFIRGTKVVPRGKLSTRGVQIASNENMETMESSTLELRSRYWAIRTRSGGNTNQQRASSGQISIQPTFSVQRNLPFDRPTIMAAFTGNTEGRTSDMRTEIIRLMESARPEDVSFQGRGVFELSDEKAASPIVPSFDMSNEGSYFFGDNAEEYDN

How the values were obtained:
[1] = target: Rcc1, the Ran guanine exchange factor (human (endogenous in HeLa)) (UniProt P18754); assay: co-IP
[2] = target: C-terminally Strep-tagged PB2 of recombinant influenza A virus WSN (rWSN-PB2-Strep) (influenza A virus strain WSN (A/WSN/33)) (UniProt P03427); assay: pull-down

| Substance | binding [1] | binding [2] |
| --- | --- | --- |
| influenza A virus (WSN) matrix protein M1 (from UniProt P05777 1-252) | binds |  |
| influenza A virus (WSN) nucleoprotein NP (from UniProt P15682 1-498) | binds | binds |
